# Structures can show the parent of a compound that is named as a salt. Some of the results follow. Repeats in this data set agree poorly, so a single value says little.
# System: Brugia pahangi adult female
# Assay: motility inhibition on day 3 relative to DMSO vehicle; higher = more active
# Settings: 10 µM; 3 days
row,Compound,motility inhibition on day 3 [%]
1,Cc1ncc(C[n+]2csc(CCO)c2C)c(N)n1 [thiamine],16.5
2,CC(C)c1c(C(=O)Nc2ccccc2)c(-c2ccccc2)c(-c2ccc(F)cc2)n1CC[C@@H](O)C[C@@H](O)CC(=O)O [atorvastatin calcium],13.6
3,CCN[C@H]1CN(CCCOC)S(=O)(=O)c2sc(S(N)(=O)=O)cc21 [brinzolamide],15
4,NS(=O)(=O)c1cc(C2(O)NC(=O)c3ccccc32)ccc1Cl (stereo unspecified) [chlorthalidone],8.44
5,CCCCCCCCCCCCCCCC(=O)OC/C=C(C)/C=C/C=C(C)/C=C/C1=C(C)CCCC1(C)C [retinyl palmitate],1.99
6,CC(=O)OCC(=O)[C@@]1(O)CC[C@H]2[C@@H]3CCC4=CC(=O)CC[C@]4(C)[C@@]3(F)[C@@H](O)C[C@@]21C [fludrocortisone acetate],18.4
7,O=C(O)CCCCCCCC(=O)O [azelaic acid],37.6
8,CCCOc1ccc(S(=O)(=O)NCCC2CCCN2C)cc1-c1nc2c(CCC)nn(C)c2c(=O)[nH]1 (stereo unspecified) [Udenafil],2.96
9,CC(=O)OCC(=O)[C@@]1(O)CC[C@H]2[C@@H]3CCC4=CC(=O)C=C[C@]4(C)[C@@]3(Cl)[C@@H](Cl)C[C@@]21C [dichlorisone acetate],< 0
10,CCCCN(CCCC)CCCOC(=O)c1ccc(N)cc1 [butacaine],17.4
11,Cc1ccc(C(=O)c2ccc(CC(=O)O)n2C)cc1 [tolmetin sodium],15.9
12,FC(F)(F)C(Cl)Br (stereo unspecified) [halothane],18.4
13,O=C(O)CN1C(=O)c2cccc3cccc(c23)C1=O [alrestatin],24.7
14,CN(C)c1cnccn1 [ampyzine sulfate],< 0
15,CC(=O)OCC(=O)NCCCOc1cccc(CN2CCCCC2)c1 [roxatidine acetate hydrochloride],17.9
16,CCn1cc(C(=O)O)c(=O)c2cc(F)c(N3CCNCC3)nc21 [enoxacin],< 0
17,OC[C@@H](O)[C@@H](O)[C@H](O)[C@H](O)CO [mannitol],8.35
18,C=CCc1ccc(O)c(OC)c1 [eugenol],42.4
19,O=C1OC(c2ccc(O)cc2)(c2ccc(O)cc2)c2ccccc21 [phenolphthalein],< 0
20,CC(C(=O)O)c1cccc(Oc2ccccc2)c1 (stereo unspecified) [fenoprofen],18.5
21,O=C(O)CN(CCN(CC(=O)O)CC(=O)O)CC(=O)O.[Na+].[Na+].[Na+] [trisodium ethylenediamine tetracetate],13.9
22,CCCc1ncc(C[n+]2ccccc2C)c(N)n1 [amprolium],< 0
23,C[N+](C)(C)CCOP(=O)(O)OP(=O)([O-])OC[C@H]1O[C@@H](n2ccc(N)nc2=O)[C@H](O)[C@@H]1O [citicoline],9.14
24,Nc1ccc(S(=O)(=O)NC(=O)c2ccccc2)cc1 [sulfabenzamide],< 0
25,CC(C)c1nc(N(C)S(C)(=O)=O)nc(-c2ccc(F)cc2)c1/C=C/[C@@H](O)C[C@@H](O)CC(=O)O [rosuvastatin],15.5
26,C=C(CC)C(=O)c1ccc(OCC(=O)O)c(Cl)c1Cl [ethacrynic acid],82.9

row,Compound,motility inhibition on day 3 [%]
1,CS(=O)(=O)c1ccc([C@@H](O)[C@@H](CF)NC(=O)C(Cl)Cl)cc1 [florfenicol],4.22
2,CCN(CC)CCCC(C)Nc1ccnc2cc(Cl)ccc12 (stereo unspecified) [Chloroquine phosphate],8.34
3,FCOC(C(F)(F)F)C(F)(F)F [sevoflurane],37.2
4,Cc1cccc(C)c1NC(=O)c1ccccc1C(=O)O [ftaxilide],18.2
5,CCCCN1C[C@H](O)[C@@H](O)[C@H](O)[C@H]1CO [Miglustat],< 0
6,C[C@@H](O)[C@H]1C(=O)N2C(C(=O)O)=C(SCCNC=N)C[C@H]12 [imipenem],5.22
7,c1ccc2c(c1)CCCC2C1=NCCN1 (stereo unspecified) [tetrahydrozoline hydrochloride],< 0
8,CC(C)(C)C(=O)OCOC(=O)[C@@H]1N2C(=O)[C@@H](/N=C/N3CCCCCC3)[C@H]2SC1(C)C [Pivmecillinam],16.3
9,Cc1ncc([N+](=O)[O-])n1C [dimetridazole],< 0
10,N[C@@H](CC(=O)O)C(=O)O [L-Aspartic acid],11.4
11,C1N2CN3CN1CN(C2)C3 [methenamine],3.08
12,C[Se]CC[C@H](N)C(=O)O [selenomethionine],38.2
13,CCCCCN(C)CCC(O)(P(=O)(O)O)P(=O)(O)O [ibandronate sodium],2.74
14,N[C@@H](CS)C(=O)O [L-Cysteine],1.04
15,N[C@@H](CS)C(=O)O [L-Cysteine hydrochloride],< 0
16,CCOC(=O)N1CCC(=C2c3ccc(Cl)cc3CCc3cccnc32)CC1 [loratadine],< 0
17,Nc1nc(F)nc2c1ncn2[C@@H]1O[C@H](COP(=O)(O)O)[C@@H](O)[C@@H]1O [fludarabine phosphate],17.3
18,COc1ccc(C(=O)CCC(=O)O)c2ccccc12 [Menbutone],< 0
19,NC(=O)c1ccccc1O [salicylamide],22.6
20,CC(C)C[C@H](NC(=O)[C@H](Cc1ccccc1)NC(=O)c1cnccn1)B(O)O [Bortezomib],2.33
21,COc1ccc(CC(C)NCC(O)c2ccc(O)c(NC=O)c2)cc1 (stereo unspecified) [Formoterol fumarate dihydrate],5.22
22,COc1ccc(CC(C)NCC(O)c2ccc(O)c(NC=O)c2)cc1 (stereo unspecified) [Formoterol],89.9
23,Oc1c(Br)cc(Br)c2cccnc12 [broxyquinoline],87.7
24,CN(C)[C@@H]1C(O)=C(C(N)=O)C(=O)[C@@]2(O)C(O)=C3C(=O)c4c(O)cccc4[C@@](C)(O)[C@H]3C[C@@H]12 [tetracycline hydrochloride],< 0
25,C[C@H](N[C@@H](CCc1ccccc1)C(=O)O)C(=O)N1CCC[C@H]1C(=O)O [enalaprilat],2.78
26,NC(=O)N[C@@H](CCC(=O)O)C(=O)O [carglumic acid],19.3

# As a short view, part of the list above.
row,Compound,motility inhibition on day 3 [%]
22,COc1ccc(CC(C)NCC(O)c2ccc(O)c(NC=O)c2)cc1 (stereo unspecified) [Formoterol],89.9
23,Oc1c(Br)cc(Br)c2cccnc12 [broxyquinoline],87.7
24,CN(C)[C@@H]1C(O)=C(C(N)=O)C(=O)[C@@]2(O)C(O)=C3C(=O)c4c(O)cccc4[C@@](C)(O)[C@H]3C[C@@H]12 [tetracycline hydrochloride],< 0
25,C[C@H](N[C@@H](CCc1ccccc1)C(=O)O)C(=O)N1CCC[C@H]1C(=O)O [enalaprilat],2.78

# The listing continues:

row,Compound,motility inhibition on day 3 [%]
1,CC(=O)[C@@]12O[C@](C)(c3ccccc3)O[C@@H]1C[C@H]1[C@@H]3CCC4=CC(=O)CC[C@]4(C)[C@H]3CC[C@@]12C [algestone acetophenide],< 0
2,COC(=O)[C@H](c1ccccc1Cl)N1CCc2sccc2C1 [clopidogrel sulfate],1.16
3,C[C@]12CCC(=O)C=C1CC[C@@H]1[C@@H]2C(=O)C[C@@]2(C)[C@H]1CC[C@]2(O)C(=O)CO [cortisone],< 0
4,COCCCC/C(=N\OCCN)c1ccc(C(F)(F)F)cc1 [fluvoxamine maleate],1.35
5,Cc1c(Cl)cccc1Nc1ccccc1C(=O)O [tolfenamic acid],18.8
6,CCCSc1ccc2[nH]c(NC(=O)OC)nc2c1 [albendazole],13.5
7,CO[C@H]1/C=C/O[C@@]2(C)Oc3c(C)c(O)c4c(O)c(c(/C=N/N5CCN(C)CC5)c(O)c4c3C2=O)NC(=O)/C(C)=C\C=C\[C@H](C)[C@H](O)[C@@H](C)[C@@H](O)[C@@H](C)[C@H](OC(C)=O)[C@@H]1C [rifampin],< 0
8,CO[C@H]1/C=C/O[C@@]2(C)Oc3c(C)c(O)c4c(O)c(c(/C=N/N5CCN(C)CC5)c(O)c4c3C2=O)NC(=O)/C(C)=C\C=C\[C@H](C)[C@H](O)[C@@H](C)[C@@H](O)[C@@H](C)[C@H](OC(C)=O)[C@@H]1C [Rifampicin],17.7
9,O=C(O)c1ccccc1-c1c2cc(I)c(=O)c(I)c-2oc2c(I)c(O)c(I)cc12 [erythrosine sodium],27
10,CCc1ccc(CCOc2ccc(CC3SC(=O)NC3=O)cc2)nc1 (stereo unspecified) [pioglitazone hydrochloride],3.11
11,O=C1c2c(O)cc(CO)cc2C(OC2OC(CO)C(O)C(O)C2O)c2cccc(OC3OC(CO)C(O)C(O)C3O)c21 (stereo unspecified) [casanthranol [cascaroside a shown]],< 0
12,Cc1ccc(N(CC2=NCCN2)c2cccc(O)c2)cc1 [Phentolamine mesylate],42.9
13,O=C1c2ccccc2C(=O)C1c1ccccc1 [phenindione],12.6
14,Clc1ccc2c(c1)C(N1CCNCC1)=Nc1ccccc1O2 [Amoxapine],< 0
15,O=C(O)CCc1nc(-c2ccccc2)c(-c2ccccc2)o1 [oxaprozin],< 0
16,c1ccc(CC2=NCCN2)cc1 [tolazoline hydrochloride],< 0
17,OCCN1CCN(CCCN2c3ccccc3Sc3ccc(C(F)(F)F)cc32)CC1 [Fluphenazine dihydrochloride],14.6
18,CC(C)(Oc1ccc(CCNC(=O)c2ccc(Cl)cc2)cc1)C(=O)O [bezafibrate],33.8
19,CC1=C(/C=C/C(C)=C/C=C/C(C)=C/C=C/C=C(C)/C=C/C=C(C)/C=C/C2=C(C)CCCC2(C)C)C(C)(C)CCC1 [beta-carotene],< 0
20,CC(C(=O)O)c1ccc(CC2CCCC2=O)cc1 (stereo unspecified) [loxoprofen],< 0
21,CC[C@H]1OC(=O)[C@H](C)[C@@H](O[C@H]2C[C@@](C)(OC)[C@@H](O)[C@H](C)O2)[C@H](C)[C@@H](O[C@@H]2O[C@H](C)C[C@H](N(C)C)[C@H]2O)[C@](C)(O)C[C@@H](C)C(=O)[C@H](C)[C@@H](O)[C@]1(C)O [erythromycin],10.3
22,Cc1cc(NC(=O)C2=C(O)c3ccccc3S(=O)(=O)N2C)no1 [isoxicam],< 0
23,Cc1cc(C(C)(C)CC(C)(C)C)ccc1OCCOCC[N+](C)(C)Cc1ccccc1 [methylbenzethonium chloride],97.4
24,CO[C@@]1(NC(=O)C2SC(=C(C(N)=O)C(=O)O)S2)C(=O)N2C(C(=O)O)=C(CSc3nnnn3C)CS[C@@H]21 (stereo partly specified) [cefotetan],< 0

# Quoted from the listing.
# motility inhibition on day 3 [%] with CC(=O)[C@@]12O[C@](C)(c3ccccc3)O[C@@H]1C[C@H]1[C@@H]3CCC4=CC(=O)CC[C@]4(C)[C@H]3CC[C@@]12C [algestone acetophenide] reads < 0
# motility inhibition on day 3 [%] with Cc1cc(NC(=O)C2=C(O)c3ccccc3S(=O)(=O)N2C)no1 [isoxicam] reads < 0
